Test results taken from PubChem BioAssay AID504834 (National Center for Advancing Translational Sciences (NCATS), 2011).
Out of some 320,000 compounds screened, about 22,000 (6.9%) were called active. The inconclusive results got no clear call from the source; some entries with a clear call stand among them for comparison. Calls come from the whole dose curve; as a rule, active = well fitted inhibition curve with a large enough effect; inconclusive = small, poorly fitted or top-dose-only effect, or another doubt; inactive = no such curve, though single readings can be large or run the other way. Potencies beside an inconclusive call are fits to weak or partial responses and may not hold up.

Assay: Primary qHTS for delayed death inhibitors of the malarial parasite plastid, 96 hour incubation
Conditions: P. falciparum luciferase reporter growth; series mostly up to 28.7 µM
In short: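 Plates of compound plus infected erythrocytes (2% hematocrit, 0.05% parasitemia final) incubate 96 hours, 37 C, 5% CO2. Detection reagent added; reduced luminescence from the parasites' luciferase reporter flags inhibition.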
Potency is the fitted concentration of half-maximal effect.

Compound	Potency
O=C1C2=C(C(=O)c3ccccc31)C1O[C@](c3ccsc3)(Cc3c1ccc1ccccc31)O2	inconclusive: 0.0586 µM [inhibitor, full curve, poor fit]
Cc1cccc(C(=O)Nc2nccs2)c1[N+](=O)[O-]	inconclusive: 13.1 µM [inhibitor, single point]
COc1ccc(C(=O)N/C(=C\c2cccc3ccccc23)C(=O)NCCc2c[nH]c3ccccc23)cc1OC	active: 5.86 µM
COc1ccc(C(=O)C2CCCN(C(=O)c3ccoc3C)C2)cc1F (stereo unspecified)	inconclusive: 2.62 µM [inhibitor, partial curve, poor fit]
N#C/C(=C\c1c(N2CCCCCC2)nc2ccccn2c1=O)C(N)=O	inactive
CCOC(=O)Cn1nnnc1CN(Cc1ccc(OC)cc1)Cc1cc2cc(C)cc(C)c2[nH]c1=O	inconclusive: 10.4 µM [inhibitor, single point]
CCN1CCN(c2nc(-c3ccccn3)nc3ccccc23)CC1	inconclusive: 0.117 µM [inhibitor, full curve, poor fit]
CC1=C(C(=O)Nc2ccc(F)cc2)C(c2ccc(C)o2)C2=C(CC(C)(C)CC2=O)N1 (stereo unspecified)	inconclusive: 18.5 µM [inhibitor, single point]
CCc1ccc(NC(=O)CSc2ccc(-c3cccnc3)nn2)cc1	inactive
N/C(=N\OC(=O)c1ccc(Cl)cc1Cl)c1cccnc1	active: 4.65 µM
CC(=O)Nc1ccc2c3c(cccc13)C(=O)N(c1ccccc1)C2=O	inactive
N#CCCN1CCN(S(=O)(=O)c2ccc3c(c2)OCCCO3)CC1	inconclusive: 4.15 µM [inhibitor, single point]
COc1cc(CN2CCN(c3ncccn3)CC2)cc(OC)c1	inconclusive: 18.5 µM [inhibitor, single point]
Nc1cc(=O)[nH]c(SCC(=O)N2CCC(Cc3ccccc3)CC2)n1	inactive
O=C(N/N=C/c1ccncc1)C1C2CCCCCCC21 (stereo unspecified)	inconclusive: 11.7 µM [inhibitor, partial curve]
CC1(C)C2CCC1(C)C(OCCNCCOC(=O)Nc1ccccc1)C2 (stereo unspecified)	inactive
CCOc1ccc(-c2cc(CCCC(=O)NCCC(C)C)no2)cc1	inconclusive: 0.0074 µM [inhibitor, single point]
Cc1nnc(NC(=O)c2cc(-c3ccco3)nc3ccccc23)s1	inactive
N#CC1=C(N)OC2=C(C(=O)CC(c3ccccc3)C2)C1c1cccnc1 (stereo unspecified)	inconclusive: 18.5 µM [inhibitor, single point]
Cc1cccc(NC(=O)COc2coc(CN3CCN(c4ccccc4)CC3)cc2=O)c1C	inconclusive: 8.28 µM [inhibitor, partial curve]
O=C(NCCC1=CCCCC1)C1CCN(Cc2cnn(-c3ccccc3)c2-n2cccc2)CC1	inconclusive: 11.7 µM [inhibitor, single point]
COc1ccc(-c2ccc(SCC(=O)Nc3cc(C)on3)nn2)cc1OC	inactive
CCc1ccc(CNC(=O)CCCn2nc(C)n3ccnc3c2=O)cc1	inconclusive: 18.5 µM [inhibitor, single point]

Nothing new here: entries from further up.
Compound	Potency
COc1ccc(C(=O)N/C(=C\c2cccc3ccccc23)C(=O)NCCc2c[nH]c3ccccc23)cc1OC	active: 5.86 µM
COc1ccc(C(=O)C2CCCN(C(=O)c3ccoc3C)C2)cc1F (stereo unspecified)	inconclusive: 2.62 µM [inhibitor, partial curve, poor fit]
N#C/C(=C\c1c(N2CCCCCC2)nc2ccccn2c1=O)C(N)=O	inactive

(next part)

Compound	Potency
Cc1ccc(-n2nc3c(c2NC(=O)c2cccs2)CS(=O)(=O)C3)c(C)c1	active: 0.586 µM
Cc1ccccc1C(=O)NC1CCN(CC(=O)Nc2ccc3c(c2)OCCO3)CC1	inconclusive: 18.5 µM [inhibitor, single point]
COc1ccc(C)cc1NC(=O)C(c1ccccc1)N1CCN(CC(=O)N2CCOCC2)CC1 (stereo unspecified)	inconclusive: 2.62 µM [inhibitor, full curve]
Cc1nc(-c2ccccc2)[nH]c(=O)c1Oc1ccc(Cl)cc1Cl	inactive
CCn1c(CN2CCN(C(c3ccccc3)c3ccccc3)CC2)nc2c1c(=O)n(C)c(=O)n2C	active: 3.29 µM
Cc1ccc2c(c1)C(c1ccccc1)N(C(=O)c1ccc(F)cc1)CC(=O)N2 (stereo unspecified)	inactive
O=C1N=C(N2CCN(Cc3ccccc3)CC2)S/C1=C/c1cccs1	inconclusive: 2.33 µM [inhibitor, full curve]
COc1ccc2c(c1)C1CC(C)(NC(=O)C1S(=O)(=O)c1ccc(F)cc1)O2 (stereo unspecified)	inactive
Cn1c(=O)c2c(nc(Oc3cccc(O)c3)n2C)n(C)c1=O	inactive
OCCC1CN(Cc2cccc3nonc23)CCN1C1CCCCC1 (stereo unspecified)	active: 14.7 µM
COc1ccc(NC(=O)CCS(=O)(=O)c2cc3c(cc2Cl)NC(=O)CO3)cc1OC	inconclusive: 11.7 µM [inhibitor, single point]
NC(=O)C1CCN(c2nc(-c3ccccc3)nc3ccccc23)CC1	inconclusive: 11.7 µM [inhibitor, partial curve]
Cc1cccc(NC(=O)CSc2nnc3ccc(-c4ccccn4)nn23)c1	inconclusive: 10.4 µM [inhibitor, single point]
Cc1ccc(/C=N/n2c(C3CCCCC3)n[nH]c2=S)s1	active: 2.08 µM
Cc1ccc(/C=C(\NC(=O)c2ccc(C)cc2)c2nc(=S)[nH][nH]2)cc1	inactive
CCOC(=O)CCSc1nc(C)c2cc(C)ccc2n1	inactive
Cc1nc(-c2ccccc2)sc1-c1ccn[nH]1	inactive
COc1ccc(/C=C(\C#N)C(=O)N2COCC2(C)C)cc1	inconclusive: 18.5 µM [inhibitor, single point]
Cc1ccc(S(=O)(=O)Nc2ccc(NC(=O)Nc3cccc(C(F)(F)F)c3)cc2)cc1	inconclusive: 4.15 µM [inhibitor, single point]
Cn1cc(/C=C/c2cc[n+](C)cc2)c2cc(Cl)ccc21	active: 0.165 µM
CCOC(=O)c1csc(NC(=O)CSc2nnnn2-c2ccc3c(c2)OCCO3)n1	inconclusive: 5.22 µM [inhibitor, single point]
CCOC(=O)C1=C(C)NC(=S)NC1c1ccc(OC(=O)c2ccco2)cc1 (stereo unspecified)	inconclusive: 18.5 µM [inhibitor, single point]
CCOC(=O)c1cc2c(=O)n3ccccc3nc2n(CCCOC)c1=NC(=O)c1ccncc1	inconclusive: 14.7 µM [inhibitor, partial curve, poor fit]
